{"source": "PubChem BioAssay AID1671195 | Yale University – 2021", "screen": "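Genes whose knockdown alters LDL uptake in liver cancer cells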 (primary screen)", "cells": "human Huh7 hepatoma cells", "reagent": "siRNA pool against human genes, 18 nM", "time to read-out": "about 2 to 2.5 days of knockdown, then 8 h LDL uptake", "treatment": "DiI-labelled LDL at 30 µg/ml for 8 h, in lipoprotein-deficient serum medium", "detection": "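Per-cell DiI-LDL intensity by automated imaging; well means scaled to the plate median and given as a robust z-score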", "direction": "robust z-score: higher = more LDL uptake after knockdown", "hit rule": "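Active when two or more replicates show a robust z-score above 2 or below -2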", "note": "The deposit covers about 22,000 reagents; shown is a random part of them. About 1,510 of them (6.9%) were called active. 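Active includes knockdowns raising or lowering LDL uptake; positive z-scores mean more uptake, negative mean less.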"}
The opening 2 records, ahead of the listing:
{"gene knocked down": "CYP4F2 (cytochrome P450 family 4 subfamily F member 2)", "robust z-score, replicate 1": -0.378, "robust z-score, replicate 2": 0.262, "robust z-score, replicate 3": 0.112, "outcome": "inactive"}
{"gene knocked down": "ASCL2 (achaete-scute family bHLH transcription factor 2)", "robust z-score, replicate 1": 0.0646, "robust z-score, replicate 2": -0.0413, "robust z-score, replicate 3": -0.395, "outcome": "inactive"}

The list itself, from the start:
{"gene knocked down": "CYP4F2 (cytochrome P450 family 4 subfamily F member 2)", "robust z-score, replicate 1": -0.378, "robust z-score, replicate 2": 0.262, "robust z-score, replicate 3": 0.112, "outcome": "inactive"}
{"gene knocked down": "ASCL2 (achaete-scute family bHLH transcription factor 2)", "robust z-score, replicate 1": 0.0646, "robust z-score, replicate 2": -0.0413, "robust z-score, replicate 3": -0.395, "outcome": "inactive"}
{"gene knocked down": "GADL1 (GAD like acidic amino acid decarboxylase 1)", "robust z-score, replicate 1": -1.39, "robust z-score, replicate 2": 0.0779, "robust z-score, replicate 3": -0.772, "outcome": "inactive"}
{"gene knocked down": "LBHD1 (LBH domain containing 1)", "robust z-score, replicate 1": 0.441, "robust z-score, replicate 2": 0.464, "robust z-score, replicate 3": 0.521, "outcome": "inactive"}
{"gene knocked down": "TMC5 (transmembrane channel like 5)", "robust z-score, replicate 1": -0.111, "robust z-score, replicate 2": 0.0089, "robust z-score, replicate 3": 0.0916, "outcome": "inactive"}
{"gene knocked down": "KCNJ5 (potassium inwardly rectifying channel subfamily J member 5)", "robust z-score, replicate 1": 2.41, "robust z-score, replicate 2": 1.01, "robust z-score, replicate 3": 3.02, "outcome": "active"}
{"gene knocked down": "SLC25A25-AS1 (SLC25A25 antisense RNA 1)", "robust z-score, replicate 1": 1.66, "robust z-score, replicate 2": 1.32, "robust z-score, replicate 3": 1.06, "outcome": "inactive"}
{"gene knocked down": "ADRA2A (adrenoceptor alpha 2A)", "robust z-score, replicate 1": 1.04, "robust z-score, replicate 2": 0.87, "robust z-score, replicate 3": 1.96, "outcome": "inactive"}
{"gene knocked down": "DDHD2 (DDHD domain containing 2)", "robust z-score, replicate 1": 0.177, "robust z-score, replicate 2": -0.323, "robust z-score, replicate 3": 0.563, "outcome": "inactive"}
{"gene knocked down": "EIF3D (eukaryotic translation initiation factor 3 subunit D)", "robust z-score, replicate 1": 0.608, "robust z-score, replicate 2": 3.12, "robust z-score, replicate 3": 0.666, "outcome": "inactive"}
{"gene knocked down": "CYP27A1 (cytochrome P450 family 27 subfamily A member 1)", "robust z-score, replicate 1": -0.405, "robust z-score, replicate 2": -0.688, "robust z-score, replicate 3": -0.693, "outcome": "inactive"}
{"gene knocked down": "OR12D3 (olfactory receptor family 12 subfamily D member 3)", "robust z-score, replicate 1": -0.814, "robust z-score, replicate 2": -1.15, "robust z-score, replicate 3": -1.02, "outcome": "inactive"}
{"gene knocked down": "MYBPHL (myosin binding protein H like)", "robust z-score, replicate 1": -0.844, "robust z-score, replicate 2": -0.603, "robust z-score, replicate 3": -0.6, "outcome": "inactive"}
{"gene knocked down": "PLCD4 (phospholipase C delta 4)", "robust z-score, replicate 1": -1.58, "robust z-score, replicate 2": -0.295, "robust z-score, replicate 3": 0.0618, "outcome": "inactive"}
{"gene knocked down": "TNS2 (tensin 2)", "robust z-score, replicate 1": -1.51, "robust z-score, replicate 2": -1.22, "robust z-score, replicate 3": -0.26, "outcome": "inactive"}
{"gene knocked down": "LOC441483 (retired record)", "robust z-score, replicate 1": -1.48, "robust z-score, replicate 2": -1.42, "robust z-score, replicate 3": -1.48, "outcome": "inactive"}
{"gene knocked down": "NAT9 (N-acetyltransferase 9)", "robust z-score, replicate 1": -0.732, "robust z-score, replicate 2": -0.555, "robust z-score, replicate 3": -0.591, "outcome": "inactive"}
{"gene knocked down": "LOC441345 (retired record)", "robust z-score, replicate 1": 0.867, "robust z-score, replicate 2": 0.16, "robust z-score, replicate 3": -0.014, "outcome": "inactive"}
{"gene knocked down": "LOC200292 (retired record)", "robust z-score, replicate 1": -1.05, "robust z-score, replicate 2": -0.549, "robust z-score, replicate 3": -0.534, "outcome": "inactive"}
{"gene knocked down": "HIRA (histone cell cycle regulator)", "robust z-score, replicate 1": -0.278, "robust z-score, replicate 2": 0.61, "robust z-score, replicate 3": -0.306, "outcome": "inactive"}
{"gene knocked down": "FRG1 (FSHD region gene 1)", "robust z-score, replicate 1": 0.016, "robust z-score, replicate 2": -0.928, "robust z-score, replicate 3": -0.264, "outcome": "inactive"}
{"gene knocked down": "MANEA (mannosidase endo-alpha)", "robust z-score, replicate 1": 0.277, "robust z-score, replicate 2": 0.174, "robust z-score, replicate 3": 0.549, "outcome": "inactive"}
{"gene knocked down": "ZPBP (zona pellucida binding protein)", "robust z-score, replicate 1": -0.482, "robust z-score, replicate 2": -0.765, "robust z-score, replicate 3": -1.09, "outcome": "inactive"}
{"gene knocked down": "DDX3Y (DEAD-box helicase 3 Y-linked)", "robust z-score, replicate 1": 0.609, "robust z-score, replicate 2": 1.86, "robust z-score, replicate 3": 1.73, "outcome": "inactive"}
{"gene knocked down": "SLC29A3", "robust z-score, replicate 1": -1.35, "robust z-score, replicate 2": -1.71, "robust z-score, replicate 3": -1.31, "outcome": "inactive"}
{"gene knocked down": "FRMD3 (FERM domain containing 3)", "robust z-score, replicate 1": 2.22, "robust z-score, replicate 2": 2.52, "robust z-score, replicate 3": 2.73, "outcome": "active"}
{"gene knocked down": "ACTA2 (actin alpha 2, smooth muscle)", "robust z-score, replicate 1": -1.51, "robust z-score, replicate 2": -1.13, "robust z-score, replicate 3": -1.26, "outcome": "inactive"}
{"gene knocked down": "DKFZp564H213 (retired record)", "robust z-score, replicate 1": 0.293, "robust z-score, replicate 2": -0.271, "robust z-score, replicate 3": 0.0267, "outcome": "inactive"}
{"gene knocked down": "GABRQ (gamma-aminobutyric acid type A receptor subunit theta)", "robust z-score, replicate 1": -0.294, "robust z-score, replicate 2": 0.822, "robust z-score, replicate 3": 0.0491, "outcome": "inactive"}
{"gene knocked down": "CBFB (core-binding factor subunit beta)", "robust z-score, replicate 1": -1.22, "robust z-score, replicate 2": -1.17, "robust z-score, replicate 3": -0.891, "outcome": "inactive"}
